{
  "sequences": {"note": "Amino acid sequences for entries named in this document (tags omitted).", "UniProt Q01860": "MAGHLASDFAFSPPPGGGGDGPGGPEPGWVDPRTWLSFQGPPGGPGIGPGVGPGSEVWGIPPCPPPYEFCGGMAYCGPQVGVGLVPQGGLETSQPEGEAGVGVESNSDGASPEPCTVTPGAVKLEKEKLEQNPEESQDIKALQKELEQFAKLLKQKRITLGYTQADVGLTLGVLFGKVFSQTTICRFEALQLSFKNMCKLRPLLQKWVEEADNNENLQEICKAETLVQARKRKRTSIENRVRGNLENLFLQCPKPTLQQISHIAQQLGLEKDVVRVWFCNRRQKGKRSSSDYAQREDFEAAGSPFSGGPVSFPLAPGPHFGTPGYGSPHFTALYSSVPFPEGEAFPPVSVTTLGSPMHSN", "UniProt Q9H9S0": "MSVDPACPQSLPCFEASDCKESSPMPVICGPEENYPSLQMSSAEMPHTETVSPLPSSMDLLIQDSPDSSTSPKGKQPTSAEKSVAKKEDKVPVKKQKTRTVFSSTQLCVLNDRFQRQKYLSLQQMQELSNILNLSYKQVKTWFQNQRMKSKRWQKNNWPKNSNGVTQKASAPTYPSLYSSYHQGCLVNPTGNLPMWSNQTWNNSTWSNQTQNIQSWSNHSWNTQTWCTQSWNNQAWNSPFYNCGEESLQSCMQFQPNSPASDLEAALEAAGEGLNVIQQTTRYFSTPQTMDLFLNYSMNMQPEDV"},
  "source": "patent US20160097036A1",
  "key": {"OCT4 (human) [1]": {"molecular_target": "OCT4 (human) (UniProt Q01860)", "assay": "co-immunoprecipitation: IP with NANOG pAb from lysate of VPA-treated CD34+ cells, Western blot with OCT4 pAb"}, "OCT4 (human) [2]": {"molecular_target": "OCT4 (human) (UniProt Q01860)", "assay": "co-immunoprecipitation: IP with NANOG pAb from lysates of VPA-expanded cells and ES cells, Western blot with OCT4 pAb"}},
  "note": "These are yes or no findings as the source states them, for the method shown. In cells and extracts the contact can be indirect. Some results given as binding are weak or reduced against the parent protein; the word gives no strength.",
  "data": [
    {"substance": "NANOG (from UniProt Q9H9S0 1-305)", "values": [
      {"measurement": "binding", "setting": "OCT4 (human) [1]", "value": "binds"},
      {"measurement": "binding", "setting": "OCT4 (human) [2]", "value": "binds"}
    ]}
  ]
}
